Values from PubChem BioAssay AID1159578 (Peter MacCallum Cancer Centre, 2015).
The whole screen tested about 18,000 reagents; shown is an unselected part. Over the whole deposit, about 1,030 (5.7%) were called active. 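Inactive calls also include pools with fewer than 3300 nuclei, whose migration was not assessed.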 The raw values are shown without normalisation.

- Purpose: 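siRNA pools altering how lymphatic endothelial cells close a scratch wound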 (primary screen)
- System: human lymphatic endothelial cells
- Knock-down reagent: siRNA pool against human genes, 40 nM
- Time to read-out: 48 h after transfection
- Detection: 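High-content imaging of dye-stained cells in a scratch assay measures filled wound area and nuclei per well; duplicate means given as ratio to mock and robust z-score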
- Direction: migration robust z-score: higher = faster migration into the scratch; migration relative to mock: higher = more scratch area covered than mock; nuclei per well: higher = more cells in the well
- Active means: 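Migration changed when robust z exceeds 2 or falls below -2 and mean nuclei number is at least 3300; otherwise not called changed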
- Calls: active = migration changed; inactive = no migration change, or too few cells

target | migration robust z-score | migration class with cell-count check | migration relative to mock | nuclei per well, duplicate mean | activity call
IL6R (interleukin 6 receptor) | -1.76 | under 3300 nuclei; migration not judged | 0.46 | 3270 | inactive
H2BC5 (H2B clustered histone 5) | 0.66 | migration z between -2 and 2; enough cells | 1.06 | 6864 | inactive
OR56A1 (olfactory receptor family 56 subfamily A member 1) | -2.15 | migration z below -2; enough cells | 0.34 | 4056 | active
SSR4 (signal sequence receptor subunit 4) | -0.24 | migration z between -2 and 2; enough cells | 0.82 | 4920 | inactive
PRPF31 (pre-mRNA processing factor 31) | 1.33 | migration z between -2 and 2; enough cells | 1.06 | 5536 | inactive
ASB2 (ankyrin repeat and SOCS box containing 2) | 0.21 | migration z between -2 and 2; enough cells | 0.85 | 5336 | inactive
TLR4 (toll like receptor 4) | -0.91 | migration z between -2 and 2; enough cells | 0.63 | 3921 | inactive
GHRH (growth hormone releasing hormone) | -1.1 | migration z between -2 and 2; enough cells | 0.6 | 3800 | inactive
DAPK1 (death associated protein kinase 1) | -0.8 | migration z between -2 and 2; enough cells | 0.65 | 4466 | inactive
SLC43A3 | 0.15 | migration z between -2 and 2; enough cells | 0.92 | 5836 | inactive
RBBP6 (RB binding protein 6, ubiquitin ligase) | 1.42 | migration z between -2 and 2; enough cells | 1.08 | 6270 | inactive
LHX1 (LIM homeobox 1) | 0.11 | migration z between -2 and 2; enough cells | 0.82 | 5790 | inactive
TUBGCP5 (tubulin gamma complex component 5) | 1.13 | migration z between -2 and 2; enough cells | 1.18 | 5185 | inactive
SERINC2 (serine incorporator 2) | 1.31 | migration z between -2 and 2; enough cells | 1.23 | 5337 | inactive
ANKRD34B (ankyrin repeat domain 34B) | -2.26 | migration z below -2; enough cells | 0.31 | 3588 | active
PRELID3B (PRELI domain containing 3B) | -4.13 | under 3300 nuclei; migration not judged | -0.16 | 2460 | inactive
CLDN19 (claudin 19) | -0.58 | migration z between -2 and 2; enough cells | 0.73 | 7528 | inactive
AIF1 (allograft inflammatory factor 1) | -0.54 | migration z between -2 and 2; enough cells | 0.74 | 5624 | inactive
DZIP1L (DAZ interacting zinc finger protein 1 like) | -0.12 | migration z between -2 and 2; enough cells | 0.86 | 5988 | inactive
TCEAL8 (transcription elongation factor A like 8) | -1.29 | migration z between -2 and 2; enough cells | 0.55 | 5830 | inactive

Laid out differently: 6 of the entries above
| target | migration robust z-score | migration class with cell-count check | migration relative to mock | nuclei per well, duplicate mean | activity call |
| --- | --- | --- | --- | --- | --- |
| LHX1 (LIM homeobox 1) | 0.11 | migration z between -2 and 2; enough cells | 0.82 | 5790 | inactive |
| TUBGCP5 (tubulin gamma complex component 5) | 1.13 | migration z between -2 and 2; enough cells | 1.18 | 5185 | inactive |
| SERINC2 (serine incorporator 2) | 1.31 | migration z between -2 and 2; enough cells | 1.23 | 5337 | inactive |
| ANKRD34B (ankyrin repeat domain 34B) | -2.26 | migration z below -2; enough cells | 0.31 | 3588 | active |
| PRELID3B (PRELI domain containing 3B) | -4.13 | under 3300 nuclei; migration not judged | -0.16 | 2460 | inactive |
| CLDN19 (claudin 19) | -0.58 | migration z between -2 and 2; enough cells | 0.73 | 7528 | inactive |

Next records follow:
target | migration robust z-score | migration class with cell-count check | migration relative to mock | nuclei per well, duplicate mean | activity call
OGFOD1 | -0.28 | migration z between -2 and 2; enough cells | 0.8 | 6413 | inactive
MTRF1L (mitochondrial translation release factor 1 like) | -0.13 | migration z between -2 and 2; enough cells | 0.78 | 4958 | inactive
TOX3 (TOX high mobility group box family member 3) | -0.5 | migration z between -2 and 2; enough cells | 0.76 | 6234 | inactive
LYAR (Ly1 antibody reactive) | -0.6 | migration z between -2 and 2; enough cells | 0.73 | 3908 | inactive
CCL15 (C-C motif chemokine ligand 15) | 0.66 | migration z between -2 and 2; enough cells | 1.06 | 4556 | inactive
PNLDC1 (PARN like ribonuclease domain containing exonuclease 1) | 0.9 | migration z between -2 and 2; enough cells | 1.13 | 5921 | inactive
GRIN2B (glutamate ionotropic receptor NMDA type subunit 2B) | 1.12 | migration z between -2 and 2; enough cells | 1.02 | 4834 | inactive
FTMT (ferritin mitochondrial) | 3.09 | migration z above 2; enough cells | 1.68 | 6532 | active
TRARG1 (trafficking regulator of GLUT4 (SLC2A4) 1 (gene/pseudogene)) | 0.88 | migration z between -2 and 2; enough cells | 1.12 | 5458 | inactive
FBXO9 (F-box protein 9) | 0.96 | migration z between -2 and 2; enough cells | 0.99 | 5417 | inactive
GPHN (gephyrin) | -0.22 | migration z between -2 and 2; enough cells | 0.83 | 7115 | inactive
TAAR6 (trace amine associated receptor 6) | 0.44 | migration z between -2 and 2; enough cells | 0.89 | 4560 | inactive
BORCS6 (BLOC-1 related complex subunit 6) | -3.77 | migration z below -2; enough cells | -0.07 | 4310 | active
RECQL5 (RecQ like helicase 5) | 0.86 | migration z between -2 and 2; enough cells | 0.97 | 4508 | inactive
H2BC4 (H2B clustered histone 4) | 0.35 | migration z between -2 and 2; enough cells | 0.98 | 5690 | inactive
MYOZ1 (myozenin 1) | -0.09 | migration z between -2 and 2; enough cells | 0.86 | 5308 | inactive
PTPRF (protein tyrosine phosphatase receptor type F) | -0.75 | migration z between -2 and 2; enough cells | 0.66 | 5978 | inactive
CAB39 (calcium binding protein 39) | 0.14 | migration z between -2 and 2; enough cells | 0.92 | 5270 | inactive
FAM153B (family with sequence similarity 153 member B) | 1.29 | migration z between -2 and 2; enough cells | 1.23 | 6223 | inactive
APOL5 (apolipoprotein L5) | 0.94 | migration z between -2 and 2; enough cells | 1.12 | 5456 | inactive
AIDA (axin interactor, dorsalization associated) | 0.76 | migration z between -2 and 2; enough cells | 1.08 | 5354 | inactive
USH1C (USH1 protein network component harmonin) | -0.68 | migration z between -2 and 2; enough cells | 0.71 | 4822 | inactive
PLAG1 (PLAG1 zinc finger) | -0.05 | migration z between -2 and 2; enough cells | 0.8 | 4368 | inactive
CPXM2 (carboxypeptidase X, M14 family member 2) | 0.5 | migration z between -2 and 2; enough cells | 0.9 | 5372 | inactive
GPR65 (G protein-coupled receptor 65) | 0.05 | migration z between -2 and 2; enough cells | 0.82 | 6702 | inactive
RUFY3 (RUN and FYVE domain containing 3) | -0.56 | migration z between -2 and 2; enough cells | 0.74 | 5888 | inactive
HNRNPK (heterogeneous nuclear ribonucleoprotein K) | -0.02 | migration z between -2 and 2; enough cells | 0.88 | 5705 | inactive
AEN (apoptosis enhancing nuclease) | 0.39 | migration z between -2 and 2; enough cells | 0.98 | 6082 | inactive
HSPB3 (heat shock protein family B (small) member 3) | -0.52 | migration z between -2 and 2; enough cells | 0.75 | 4686 | inactive
MCOLN2 (mucolipin TRP cation channel 2) | 0.16 | migration z between -2 and 2; enough cells | 0.84 | 5324 | inactive
PDHX (pyruvate dehydrogenase complex component X) | -0.2 | migration z between -2 and 2; enough cells | 0.76 | 5614 | inactive
SLC25A11 | -0.83 | migration z between -2 and 2; enough cells | 0.64 | 4044 | inactive
PCCA (propionyl-CoA carboxylase subunit alpha) | -0.42 | migration z between -2 and 2; enough cells | 0.72 | 4933 | inactive
NXT2 (nuclear transport factor 2 like export factor 2) | -0.65 | migration z between -2 and 2; enough cells | 0.68 | 5236 | inactive
PEX12 (peroxisomal biogenesis factor 12) | 0.48 | migration z between -2 and 2; enough cells | 1.01 | 5350 | inactive
SNED1 (sushi, nidogen and EGF like domains 1) | -0.18 | migration z between -2 and 2; enough cells | 0.83 | 6260 | inactive
NKAPD1 (NKAP domain containing 1) | 1.56 | migration z between -2 and 2; enough cells | 1.28 | 5956 | inactive
